Earlier results as cited in patent US10188107B2 (Heinrich Heine Universität Düsseldorf, priority 2013, dated 2019).
At least one structure is not confirmed: it was looked up by name or label, or the drawing left a doubt.

Legend:
[1] = molecular target: pyruvate phosphate dikinase (PPDK); conditions: isolated enzyme; read-out: half maximal inhibitory concentration (IC50); cited from earlier work
[2] = test system: PEP carboxylase from C4 plant Amaranthus viridis; conditions: cited from earlier work

Structure (SMILES)	IC50 [1] [µM]	inhibition of PEP carboxylase from Amaranthus viridis [2]
C=C1CCC[C@H]2[C@](C)(CC3=C(O)C(=O)C=C(OC)C3=O)[C@@H](C)CC[C@]12C [ilimaquinone]	292	–
C[C@@H]1O[C@@H](OC[C@H]2O[C@@H](Oc3c(-c4ccc(O)c(O)c4)oc4cc(O)cc(O)c4c3=O)[C@H](O)[C@@H](O)[C@@H]2O)[C@H](O)[C@H](O)[C@H]1O [rutin]	–	inhibited
